In patent US20030108998A1 one finds binding data, which are given here for one molecule.

Chains of the proteins cited; added tags and fusions are not shown. Residues count along the entry.
UniProt P20414, residues 24-207: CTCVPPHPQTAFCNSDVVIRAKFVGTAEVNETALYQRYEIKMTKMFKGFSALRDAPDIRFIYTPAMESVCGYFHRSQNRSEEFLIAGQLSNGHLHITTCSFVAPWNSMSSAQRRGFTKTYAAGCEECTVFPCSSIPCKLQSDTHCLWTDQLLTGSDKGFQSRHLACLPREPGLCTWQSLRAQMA

The assay has as its target bovine tissue inhibitor of metalloproteinases-1 (TIMP-1) (bovine) (UniProt P20414). The assay is described as follows: affinity purification: ADMP captured on TIMP-1, with the complex pulled down by anti-TIMP-1 mAb on a protein A column.

Results are given in words; binding and its absence hold for the method and conditions named. Some results given as binding are weak or reduced against the parent protein; the word gives no strength.

B1: ADMP-1 (aggrecan degrading metallo protease 1), 67 kDa active form purified from conditioned media of IL-1-stimulated bovine nasal cartilage (enzyme, UniProt Q9TT93 213-839, looked up)
chain: FASLSRFVETLVVADDKMAAFHGAGLKRYLLTVMAAAAKAFKHPSIRNPVSLVVTRLVVLGPGEEGPQVGPSAAQTLRSFCAWQRGLNTPDDADPGHFDTAILFTRQDLCGVSTCDTLGMADVGTVCDPARSCAIVEDDGLQSAFTAAHELGHVFSMLHDNSKQCTGLNGPESTSRHVMAPVMAHVDPEEPWSPCSARFITDFLDNGFGHCLLDKPEAPLHLPVTFPGKDYDADRQCQLTFGPDSRHCPQLPPPCAALWCSGHLNGHAMCQTKHSPWADGTPCGPAQACMGGRCLHVDQLQAFNVPQAGGWGPWGSWGDCSRSCGGGVQFSSRDCTRPVPRNGGKYCEGRRTRFRSCNTQDCPTGSALTFREEQCAAYNHRTDLFKNFPGPMDWVPRYTGVAPRDQCKLTCQTRALGYYYVLDPRVADGTPCSPDSSSVCVQGRCIHAGCDRVIGSKKKFDKCMVCGGDGSSCSKQSGSFKKFRYGYNNVVTIPAGATHILVRQQGSPSVRSLYLALKLPDGSYALNGEYTLIPSPTDVVLPGAVSLRYSGATAASETLSGHGPLAEPLTLQVLVAGNPQNARLRYSFFVPRPRPVPSTPRPTPQDWLRRKSQILEILRRRSWAGRK
Consider B1, for which the binding result is recorded as “binds”.
